# Experimental data taken from the supplement of paper PMC10849652.
# Amino acid sequences for entries named in this document (tags omitted). A change or cut given only in a name is not applied to a line headed by its entry.
# UniProt Q8IWB7: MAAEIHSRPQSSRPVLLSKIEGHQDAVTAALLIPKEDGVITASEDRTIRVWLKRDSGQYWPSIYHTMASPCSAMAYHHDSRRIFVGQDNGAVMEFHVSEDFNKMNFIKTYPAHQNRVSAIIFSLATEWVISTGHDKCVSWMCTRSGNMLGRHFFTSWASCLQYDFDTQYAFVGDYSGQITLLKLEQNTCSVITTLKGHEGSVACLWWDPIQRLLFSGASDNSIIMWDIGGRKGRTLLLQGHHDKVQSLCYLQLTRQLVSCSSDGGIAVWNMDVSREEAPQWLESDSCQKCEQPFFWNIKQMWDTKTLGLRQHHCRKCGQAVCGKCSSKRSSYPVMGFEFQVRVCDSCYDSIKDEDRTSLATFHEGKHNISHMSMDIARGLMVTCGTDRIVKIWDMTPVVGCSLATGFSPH
# UniProt Q96MX6, whole entry, looked up: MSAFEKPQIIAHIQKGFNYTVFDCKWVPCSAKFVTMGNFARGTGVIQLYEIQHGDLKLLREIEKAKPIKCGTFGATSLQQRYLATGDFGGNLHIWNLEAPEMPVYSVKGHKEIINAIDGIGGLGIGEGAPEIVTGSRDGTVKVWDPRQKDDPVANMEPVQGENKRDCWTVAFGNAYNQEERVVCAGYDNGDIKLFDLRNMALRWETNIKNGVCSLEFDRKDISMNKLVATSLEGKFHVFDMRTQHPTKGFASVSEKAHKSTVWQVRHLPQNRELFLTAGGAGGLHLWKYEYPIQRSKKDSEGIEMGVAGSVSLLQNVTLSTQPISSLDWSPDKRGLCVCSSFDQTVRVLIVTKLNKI
# UniProt O00258: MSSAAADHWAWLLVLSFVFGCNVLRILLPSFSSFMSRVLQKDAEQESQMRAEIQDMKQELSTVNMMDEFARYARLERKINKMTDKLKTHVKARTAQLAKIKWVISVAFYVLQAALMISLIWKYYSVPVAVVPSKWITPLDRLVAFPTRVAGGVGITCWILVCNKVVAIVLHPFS
# UniProt Q9H267: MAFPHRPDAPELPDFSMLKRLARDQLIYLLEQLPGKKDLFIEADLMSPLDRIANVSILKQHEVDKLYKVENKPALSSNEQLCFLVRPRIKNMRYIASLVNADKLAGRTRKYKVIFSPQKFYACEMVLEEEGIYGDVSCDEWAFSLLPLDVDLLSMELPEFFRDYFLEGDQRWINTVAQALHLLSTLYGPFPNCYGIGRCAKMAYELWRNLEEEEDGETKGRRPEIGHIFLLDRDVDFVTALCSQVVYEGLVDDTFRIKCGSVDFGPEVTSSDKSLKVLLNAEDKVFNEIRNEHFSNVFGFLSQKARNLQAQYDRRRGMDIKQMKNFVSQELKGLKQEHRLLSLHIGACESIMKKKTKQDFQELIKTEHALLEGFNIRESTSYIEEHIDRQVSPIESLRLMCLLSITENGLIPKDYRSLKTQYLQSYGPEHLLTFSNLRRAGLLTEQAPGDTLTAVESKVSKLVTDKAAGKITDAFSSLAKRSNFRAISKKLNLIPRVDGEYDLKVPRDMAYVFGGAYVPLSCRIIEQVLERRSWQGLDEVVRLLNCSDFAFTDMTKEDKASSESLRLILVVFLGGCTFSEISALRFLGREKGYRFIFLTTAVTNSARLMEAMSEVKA
# UniProt P98170, whole entry, looked up: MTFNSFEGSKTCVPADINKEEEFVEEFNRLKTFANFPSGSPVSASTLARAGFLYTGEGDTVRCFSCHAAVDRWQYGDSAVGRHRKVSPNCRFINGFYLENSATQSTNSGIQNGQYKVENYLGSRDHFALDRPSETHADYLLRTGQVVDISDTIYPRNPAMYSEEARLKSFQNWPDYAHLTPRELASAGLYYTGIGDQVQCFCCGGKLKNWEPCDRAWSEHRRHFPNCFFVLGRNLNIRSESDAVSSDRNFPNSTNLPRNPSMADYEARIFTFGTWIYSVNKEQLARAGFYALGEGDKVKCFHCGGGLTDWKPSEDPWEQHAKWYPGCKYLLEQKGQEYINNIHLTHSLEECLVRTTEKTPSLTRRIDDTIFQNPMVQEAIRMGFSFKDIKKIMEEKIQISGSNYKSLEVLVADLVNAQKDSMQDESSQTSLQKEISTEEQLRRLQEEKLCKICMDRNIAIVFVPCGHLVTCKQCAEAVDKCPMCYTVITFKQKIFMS
# UniProt Q9UN37: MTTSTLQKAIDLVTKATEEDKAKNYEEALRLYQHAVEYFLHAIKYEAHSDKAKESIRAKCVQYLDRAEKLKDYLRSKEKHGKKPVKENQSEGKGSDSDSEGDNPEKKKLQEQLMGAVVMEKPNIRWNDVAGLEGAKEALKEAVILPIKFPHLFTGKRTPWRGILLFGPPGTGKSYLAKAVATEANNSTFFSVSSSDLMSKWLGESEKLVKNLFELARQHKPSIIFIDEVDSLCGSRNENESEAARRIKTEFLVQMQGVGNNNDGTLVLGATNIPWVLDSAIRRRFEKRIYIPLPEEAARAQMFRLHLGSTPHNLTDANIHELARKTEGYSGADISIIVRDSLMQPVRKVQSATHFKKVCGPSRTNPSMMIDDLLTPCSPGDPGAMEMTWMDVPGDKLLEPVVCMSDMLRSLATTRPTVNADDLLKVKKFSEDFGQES
# UniProt Q9H269: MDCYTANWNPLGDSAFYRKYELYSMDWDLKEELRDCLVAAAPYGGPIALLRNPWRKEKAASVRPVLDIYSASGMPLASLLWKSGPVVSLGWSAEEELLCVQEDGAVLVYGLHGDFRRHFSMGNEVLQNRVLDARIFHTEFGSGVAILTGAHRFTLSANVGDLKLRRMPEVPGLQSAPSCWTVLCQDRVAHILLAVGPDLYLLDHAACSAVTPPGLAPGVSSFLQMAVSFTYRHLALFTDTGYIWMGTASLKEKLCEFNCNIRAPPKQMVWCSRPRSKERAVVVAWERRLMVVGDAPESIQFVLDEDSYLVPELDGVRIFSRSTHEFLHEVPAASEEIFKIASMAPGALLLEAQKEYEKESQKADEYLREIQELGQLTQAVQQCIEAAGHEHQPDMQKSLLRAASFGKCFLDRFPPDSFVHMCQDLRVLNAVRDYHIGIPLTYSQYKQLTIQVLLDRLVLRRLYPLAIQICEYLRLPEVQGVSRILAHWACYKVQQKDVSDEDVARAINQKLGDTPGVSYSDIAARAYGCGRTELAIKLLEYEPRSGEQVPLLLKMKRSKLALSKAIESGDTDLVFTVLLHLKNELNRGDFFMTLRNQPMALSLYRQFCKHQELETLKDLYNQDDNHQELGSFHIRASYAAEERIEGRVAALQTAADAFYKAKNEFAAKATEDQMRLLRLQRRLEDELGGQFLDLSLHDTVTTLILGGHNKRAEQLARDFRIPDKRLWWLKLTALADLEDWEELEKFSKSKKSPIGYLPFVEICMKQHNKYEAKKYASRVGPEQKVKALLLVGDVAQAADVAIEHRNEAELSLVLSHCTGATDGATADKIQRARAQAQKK
# UniProt Q9H6Y2: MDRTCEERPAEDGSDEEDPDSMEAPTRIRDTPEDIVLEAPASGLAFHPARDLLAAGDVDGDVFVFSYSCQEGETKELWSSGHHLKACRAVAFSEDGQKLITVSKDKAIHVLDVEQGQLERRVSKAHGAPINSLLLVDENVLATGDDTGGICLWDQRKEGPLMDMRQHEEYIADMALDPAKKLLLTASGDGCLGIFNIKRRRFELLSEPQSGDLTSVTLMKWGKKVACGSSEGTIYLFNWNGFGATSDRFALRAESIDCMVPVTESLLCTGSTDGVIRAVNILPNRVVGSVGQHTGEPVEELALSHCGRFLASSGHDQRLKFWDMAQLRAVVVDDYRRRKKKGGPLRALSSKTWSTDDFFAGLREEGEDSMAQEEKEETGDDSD
# UniProt Q9H7M9, whole entry, looked up: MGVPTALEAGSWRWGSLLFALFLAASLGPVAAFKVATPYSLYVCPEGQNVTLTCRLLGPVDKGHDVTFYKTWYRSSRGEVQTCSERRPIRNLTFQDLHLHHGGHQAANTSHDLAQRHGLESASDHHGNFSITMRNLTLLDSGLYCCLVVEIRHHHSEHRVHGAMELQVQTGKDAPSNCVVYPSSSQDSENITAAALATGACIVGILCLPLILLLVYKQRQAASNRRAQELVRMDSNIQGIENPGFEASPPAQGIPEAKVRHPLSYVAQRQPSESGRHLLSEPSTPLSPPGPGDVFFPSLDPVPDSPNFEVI
# UniProt Q9H9C1: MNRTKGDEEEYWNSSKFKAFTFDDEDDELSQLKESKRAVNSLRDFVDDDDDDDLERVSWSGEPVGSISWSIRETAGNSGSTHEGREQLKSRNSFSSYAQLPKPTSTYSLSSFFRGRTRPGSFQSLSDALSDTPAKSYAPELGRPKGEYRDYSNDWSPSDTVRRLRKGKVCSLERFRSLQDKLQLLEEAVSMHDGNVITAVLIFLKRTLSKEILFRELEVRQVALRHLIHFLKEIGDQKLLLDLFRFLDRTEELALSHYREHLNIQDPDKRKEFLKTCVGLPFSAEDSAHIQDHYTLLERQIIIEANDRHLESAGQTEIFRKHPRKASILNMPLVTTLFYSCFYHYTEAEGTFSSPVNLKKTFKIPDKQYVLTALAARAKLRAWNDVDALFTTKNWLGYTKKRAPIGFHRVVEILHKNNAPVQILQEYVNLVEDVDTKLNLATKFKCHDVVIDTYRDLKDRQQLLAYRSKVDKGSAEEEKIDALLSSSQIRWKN
# UniProt Q9NZC7: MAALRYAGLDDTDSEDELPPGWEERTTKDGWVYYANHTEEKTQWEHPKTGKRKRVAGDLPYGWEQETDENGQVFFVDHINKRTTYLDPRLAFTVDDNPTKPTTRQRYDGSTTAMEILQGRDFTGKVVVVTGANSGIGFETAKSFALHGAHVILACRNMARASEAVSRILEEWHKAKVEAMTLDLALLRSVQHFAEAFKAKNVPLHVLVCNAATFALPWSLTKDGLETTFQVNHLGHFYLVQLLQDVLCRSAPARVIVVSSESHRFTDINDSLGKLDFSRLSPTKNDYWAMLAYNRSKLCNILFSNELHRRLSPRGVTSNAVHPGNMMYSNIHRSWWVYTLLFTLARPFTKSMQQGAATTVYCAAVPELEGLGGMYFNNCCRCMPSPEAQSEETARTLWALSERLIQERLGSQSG
# UniProt Q9UGM6: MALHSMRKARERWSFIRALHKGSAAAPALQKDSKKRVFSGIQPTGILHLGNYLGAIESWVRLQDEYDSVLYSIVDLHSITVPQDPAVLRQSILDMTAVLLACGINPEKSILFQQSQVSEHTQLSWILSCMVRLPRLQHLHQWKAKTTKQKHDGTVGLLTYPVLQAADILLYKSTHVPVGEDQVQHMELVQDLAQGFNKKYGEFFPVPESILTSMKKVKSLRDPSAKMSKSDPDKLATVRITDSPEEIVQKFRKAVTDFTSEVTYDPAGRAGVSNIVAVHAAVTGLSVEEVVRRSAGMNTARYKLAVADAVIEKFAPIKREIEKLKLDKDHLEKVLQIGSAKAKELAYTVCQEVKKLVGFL
# UniProt Q5MNZ9: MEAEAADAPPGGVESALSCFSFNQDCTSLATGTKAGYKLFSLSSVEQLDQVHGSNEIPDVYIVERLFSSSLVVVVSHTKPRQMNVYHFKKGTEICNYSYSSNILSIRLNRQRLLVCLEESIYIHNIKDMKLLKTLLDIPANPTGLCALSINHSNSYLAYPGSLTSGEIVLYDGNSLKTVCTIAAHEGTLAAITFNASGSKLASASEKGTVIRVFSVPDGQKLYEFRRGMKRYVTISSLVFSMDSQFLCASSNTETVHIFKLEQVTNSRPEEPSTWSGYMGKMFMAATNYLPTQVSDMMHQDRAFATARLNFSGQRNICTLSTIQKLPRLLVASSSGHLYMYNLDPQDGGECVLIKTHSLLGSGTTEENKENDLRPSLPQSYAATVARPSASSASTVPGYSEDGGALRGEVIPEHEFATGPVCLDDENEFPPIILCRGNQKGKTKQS
# UniProt O43516: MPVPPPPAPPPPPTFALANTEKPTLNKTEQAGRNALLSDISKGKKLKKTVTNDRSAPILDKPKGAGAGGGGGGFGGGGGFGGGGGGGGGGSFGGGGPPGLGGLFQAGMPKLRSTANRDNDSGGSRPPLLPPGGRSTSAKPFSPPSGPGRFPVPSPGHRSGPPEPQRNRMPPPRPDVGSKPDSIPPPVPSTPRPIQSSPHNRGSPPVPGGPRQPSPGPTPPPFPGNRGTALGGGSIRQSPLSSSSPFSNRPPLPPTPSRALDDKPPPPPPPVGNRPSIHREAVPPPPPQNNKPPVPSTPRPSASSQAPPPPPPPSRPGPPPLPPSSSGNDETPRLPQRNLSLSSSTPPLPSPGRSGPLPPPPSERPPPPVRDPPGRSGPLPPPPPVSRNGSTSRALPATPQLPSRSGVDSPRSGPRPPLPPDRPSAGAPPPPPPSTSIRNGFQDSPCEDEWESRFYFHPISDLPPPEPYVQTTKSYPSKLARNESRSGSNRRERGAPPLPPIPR
# The other results are listed elsewhere or left out.
# Columns and labels:
# Test in all cases: log2 fold change, soluble protein after heating vs DMSO (PISA); higher = thermal stabilisation; K562 cells, 10 uM, 30 min; active = over 0.2 and 3.5 SD of the protein, either way, in both replicates (recomputed)
# [1] = compound: CC1=C(C=C(C=C1)NC(=O)C2=CC(=CC=C2)C(C)(C)C#N)NC3=CC4=C(C=C3)N=CN(C4=O)C
# Procedure, shortened: (§1)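 Values are thermal stability changes relative to control samples and are taken from duplicates. They are stated as log2 fold changes. Before quantification by TMTpro 16plex LC-MS/MS with equalised channel sums, K562 cells at 2×10^6 cells/mL were treated with 10 μM compound for 30 min, heated in aliquots for 3 min across 48°C-58°C, pooled, extracted in PBS with 0.5% NP-40 at 4°C, and centrifuged at 21,000xg for 90 min to give the soluble supernatant.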
# [2] = compound: CC1=C(C=C(C=C1)NC(=O)C2=CC(=CC=C2)N(C)C)NC(=O)C3=CC=C(C=C3)O
# Procedure, shortened: as §1
# [3] = compound: CC1=CC=C(C=C1)SC2=C3C=C(SC3=CN=C2)C(=O)N
# Procedure, shortened: as §1
# [4] = compound: CC1=NC(=CC=C1)C2=C(N=C(N2)C(C)(C)C)C3=CC4=NC=CN=C4C=C3
# Procedure, shortened: as §1
# Nexturastat A = compound: CCCCN(Cc1ccc(C(=O)NO)cc1)C(=O)Nc1ccccc1 [Nexturastat A]
# Procedure, shortened: as §1
# vemurafenib = compound: CCCS(=O)(=O)Nc1ccc(F)c(C(=O)c2c[nH]c3ncc(-c4ccc(Cl)cc4)cc23)c1F [vemurafenib]
# Procedure, shortened: as §1
# [5] = compound: CCCS(=O)(=O)Nc1ccc(F)c(C(=O)c2c[nH]c3ncc(Cl)cc23)c1F
# Procedure, shortened: as §1
# [6] = compound: CCCc1cc(C)[nH]c(=O)c1CNC(=O)c1cc(-c2ccnc(N3CCN(C)CC3)c2)cc2c1cnn2C(C)C
# Procedure, shortened: as §1
# givinostat = compound: CCN(CC)Cc1ccc2cc(COC(=O)Nc3ccc(C(=O)NO)cc3)ccc2c1 [givinostat]
# Procedure, shortened: as §1
# barasertib = compound: CCN(CCCOc1ccc2c(Nc3cc(CC(=O)Nc4cccc(F)c4)[nH]n3)ncnc2c1)CCOP(=O)(O)O [barasertib]
# Procedure, shortened: as §1
Target,log2 fold change [1],log2 fold change [2],log2 fold change [3],log2 fold change [4],log2 fold change (Nexturastat A),log2 fold change (vemurafenib),log2 fold change [5],log2 fold change [6],log2 fold change (givinostat),log2 fold change (barasertib)
WDFY1 (UniProt Q8IWB7),inactive: 0,inactive: 0.033,inactive: 0.025,inactive: -0.017,inactive: -0.002,inactive: -0.022,inactive: 0.03,inactive: -0.008,inactive: -0.03,inactive: 0.012
WEE1 (UniProt P30291),inactive: -0.037,inactive: 0.02,inactive: -0.304,inactive: -0.046,inactive: 0.322,inactive: 0,inactive: 0,inactive: -0.137,inactive: 0.037,inactive: -0.005
WASHC3 (UniProt Q9Y3C0),inactive: 0.011,inactive: 0.015,inactive: 0.049,inactive: -0.008,inactive: -0.051,inactive: 0.005,inactive: -0.006,inactive: -0.08,inactive: 0.004,inactive: 0.017
WDR92 (UniProt Q96MX6),inactive: 0.042,inactive: 0.031,inactive: -0.034,inactive: -0.011,inactive: 0.084,inactive: -0.031,inactive: 0.085,inactive: 0.074,inactive: -0.068,inactive: 0.071
WDSUB1 (UniProt Q8N9V3),inactive: -0.041,inactive: -0.003,inactive: 0.018,inactive: -0.001,inactive: -0.004,inactive: 0.009,inactive: 0.016,inactive: -0.086,inactive: -0.041,inactive: 0.025
WRB (UniProt O00258),inactive: -0.046,inactive: -0.11,inactive: -0.007,inactive: -0.023,active: -0.25,inactive: 0.108,inactive: -0.037,inactive: -0.074,inactive: 0.032,inactive: -0.014
VPS72 isoform 2 (UniProt Q15906),inactive: -0.051,inactive: 0.196,inactive: 0.05,,inactive: -0.17,inactive: 0.025,inactive: -0.028,inactive: -0.042,inactive: -0.014,inactive: 0.001
WTAP (UniProt Q15007),inactive: -0.016,,inactive: 0.069,,,inactive: 0.091,inactive: -0.041,,inactive: 0.123,
VMA21 (UniProt Q3ZAQ7),inactive: 0.035,,inactive: -0.037,inactive: 0.015,inactive: 0.007,inactive: 0.053,inactive: 0.031,inactive: 0.047,inactive: -0.006,inactive: 0.055
WDR81 (UniProt Q562E7),inactive: -0.029,inactive: -0.046,,inactive: -0.16,inactive: 0.064,,,,,inactive: 0.065
VPS33B (UniProt Q9H267),inactive: -0.05,inactive: -0.037,inactive: -0.015,inactive: -0.02,inactive: 0.032,inactive: 0.087,inactive: 0.069,inactive: 0.111,inactive: 0.029,inactive: 0.088
WDR5 (UniProt P61964),inactive: -0.02,inactive: 0.029,inactive: -0.046,inactive: -0.021,inactive: 0.107,inactive: -0.065,inactive: -0.015,inactive: 0.064,inactive: -0.14,inactive: -0.091
XIAP (UniProt P98170),inactive: -0.047,,inactive: -0.045,,inactive: -0.045,inactive: 0.035,inactive: 0,inactive: -0.049,inactive: 0.019,inactive: 0
VCX3B (UniProt Q9H321),inactive: 0.032,,inactive: 0.064,,inactive: 0.029,inactive: -0.038,inactive: 0.041,inactive: -0.001,inactive: -0.008,inactive: 0.052
WDR33 (UniProt Q9C0J8),inactive: -0.001,inactive: 0.136,inactive: -0.047,,inactive: -0.013,inactive: -0.147,inactive: -0.063,inactive: -0.008,inactive: 0.088,inactive: -0.162
VPS4A (UniProt Q9UN37),inactive: 0.009,inactive: -0.07,inactive: 0.006,inactive: 0.008,inactive: -0.008,inactive: 0.072,inactive: 0.079,inactive: 0.006,inactive: 0.008,inactive: 0.047
VKORC1 (UniProt Q9BQB6),inactive: 0.064,inactive: -0.04,inactive: 0.001,active: -0.325,,inactive: -0.023,inactive: 0.117,inactive: -0.017,inactive: -0.006,inactive: 0.048
WRNIP1 (UniProt Q96S55),inactive: -0.082,inactive: 0.032,inactive: -0.056,inactive: 0.052,inactive: -0.169,inactive: 0.036,inactive: 0.009,inactive: 0.116,inactive: 0.059,inactive: 0.125
VPS16 (UniProt Q9H269),inactive: 0.023,inactive: 0.011,inactive: 0.032,inactive: -0.013,inactive: 0.038,inactive: 0.017,inactive: 0.109,inactive: 0,inactive: 0.075,inactive: -0.086
WDR6 (UniProt Q9NNW5),inactive: -0.011,inactive: 0.014,inactive: -0.007,inactive: 0.019,inactive: 0.057,inactive: -0.036,inactive: 0.041,inactive: 0.005,inactive: 0.016,inactive: 0.015

Target,log2 fold change [1],log2 fold change [2],log2 fold change [3],log2 fold change [4],log2 fold change (Nexturastat A),log2 fold change (vemurafenib),log2 fold change [5],log2 fold change [6],log2 fold change (givinostat),log2 fold change (barasertib)
WDR53 (UniProt Q7Z5U6),inactive: 0.032,inactive: -0.128,inactive: 0.019,inactive: 0.136,,inactive: 0.035,inactive: 0.033,inactive: 0,inactive: -0.033,inactive: 0.003
VDAC2 (UniProt Q5JSD2),inactive: -0.075,,inactive: -0.165,,inactive: 0.089,,inactive: -0.241,inactive: -0.297,,inactive: -0.019
VDAC1 (UniProt C9JI87),inactive: -0.03,inactive: -0.003,inactive: -0.034,,inactive: -0.093,,inactive: -0.134,inactive: -0.053,inactive: -0.052,inactive: 0.071
WDR74 (UniProt Q6RFH5),inactive: -0.041,inactive: -0.04,inactive: -0.067,inactive: -0.099,inactive: 0.195,inactive: -0.061,inactive: -0.029,inactive: 0.005,inactive: 0.032,inactive: -0.098
WDR55 (UniProt Q9H6Y2),inactive: 0.007,inactive: -0.03,inactive: 0.025,inactive: 0.023,inactive: -0.123,inactive: -0.028,inactive: -0.014,inactive: -0.032,inactive: -0.029,inactive: 0.01
WDR12 (UniProt Q9GZL7),inactive: -0.009,inactive: 0.007,inactive: 0.03,inactive: 0.025,inactive: -0.043,inactive: -0.044,inactive: -0.005,inactive: -0.036,inactive: 0.004,inactive: -0.007
WDR24 (UniProt Q96S15),inactive: 0.046,inactive: 0.045,inactive: -0.087,,inactive: -0.064,,inactive: -0.175,,inactive: 0.008,
VSIR (UniProt Q9H7M9),inactive: -0.032,inactive: 0.001,,inactive: -0.129,inactive: -0.057,inactive: 0.023,,inactive: -0.03,inactive: 0.021,inactive: -0.087
VIPAS39 (UniProt Q9H9C1),inactive: -0.366,,inactive: 0.032,,,inactive: 0.077,inactive: 0.146,inactive: -0.077,inactive: 0.052,inactive: -0.093
VTN (UniProt P04004),inactive: -0.132,inactive: 0.265,inactive: 0.064,inactive: -0.085,inactive: 0.146,inactive: -0.043,inactive: -0.105,inactive: -0.447,inactive: 0.091,inactive: -0.017
VPS26A (UniProt O75436),inactive: 0.02,inactive: 0.019,inactive: 0.026,inactive: 0.053,inactive: 0.037,inactive: 0.021,inactive: 0.059,inactive: -0.065,inactive: 0.009,inactive: -0.019
WWOX (UniProt Q9NZC7),inactive: -0.137,,inactive: -0.064,,,,inactive: -0.106,inactive: -0.02,inactive: 0.073,
"WDR46, A0A0G2JJL1",inactive: -0.161,,inactive: -0.229,inactive: -0.254,inactive: 0.194,inactive: -0.09,inactive: 0.078,inactive: 0.19,inactive: 0.15,inactive: -0.248
WARS2 (UniProt Q9UGM6),inactive: -0.03,inactive: 0.032,inactive: 0.018,inactive: 0.074,inactive: -0.128,inactive: 0.048,inactive: 0.136,inactive: 0.042,inactive: -0.026,inactive: 0.012
WIPI1 (UniProt Q5MNZ9),inactive: -0.085,inactive: 0.03,inactive: -0.051,inactive: 0.018,inactive: 0.05,,inactive: -0.139,inactive: -0.126,inactive: 0,inactive: 0.029
WIZ isoform 3 (UniProt O95785),inactive: 0.083,inactive: 0.014,inactive: -0.052,inactive: 0.027,inactive: 0.091,inactive: 0.142,inactive: 0.059,inactive: 0.067,inactive: 0.136,inactive: -0.092
WIPF1 isoform 3 (UniProt O43516),inactive: -0.081,inactive: -0.044,inactive: 0.272,inactive: -0.035,,inactive: -0.04,inactive: -0.071,inactive: -0.844,inactive: 0.09,inactive: 0.028
VPS13D (UniProt Q5THJ4),inactive: -0.223,inactive: -0.001,inactive: 0.017,inactive: 0.035,inactive: 0.07,inactive: -0.056,inactive: -0.004,inactive: -0.139,inactive: 0.174,inactive: 0.076
"WDR26, A0A499FIZ0",inactive: 0.017,inactive: -0.017,inactive: -0.042,inactive: -0.02,inactive: -0.063,inactive: -0.032,inactive: -0.031,inactive: -0.07,inactive: -0.036,inactive: 0.026

# Copied from the list:
# Entry of WDR55 (UniProt Q9H6Y2) under log2 fold change [1]: inactive: 0.007
# Entry of WWOX (UniProt Q9NZC7) under log2 fold change [5]: inactive: -0.106
